No constants are given. Whether binding was seen depends on the method and setting. In cells and extracts the contact can be indirect. Here binding means that the protein was enriched with, or labelled near, the bait; the list need not be complete. Where a sequence is shown, tags or fusion partners need not be part of it.
T1: SYNJ2BP fused with BirA*-FLAG (BioID bait) (human) (UniProt P57105)
T1 sequence: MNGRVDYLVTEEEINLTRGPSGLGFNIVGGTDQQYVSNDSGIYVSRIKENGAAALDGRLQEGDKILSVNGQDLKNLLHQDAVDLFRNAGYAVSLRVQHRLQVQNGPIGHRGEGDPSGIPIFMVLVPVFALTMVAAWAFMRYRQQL

Protein sequences, listed by entry. Tags and fused reporters are not part of them.
UniProt Q96RL7: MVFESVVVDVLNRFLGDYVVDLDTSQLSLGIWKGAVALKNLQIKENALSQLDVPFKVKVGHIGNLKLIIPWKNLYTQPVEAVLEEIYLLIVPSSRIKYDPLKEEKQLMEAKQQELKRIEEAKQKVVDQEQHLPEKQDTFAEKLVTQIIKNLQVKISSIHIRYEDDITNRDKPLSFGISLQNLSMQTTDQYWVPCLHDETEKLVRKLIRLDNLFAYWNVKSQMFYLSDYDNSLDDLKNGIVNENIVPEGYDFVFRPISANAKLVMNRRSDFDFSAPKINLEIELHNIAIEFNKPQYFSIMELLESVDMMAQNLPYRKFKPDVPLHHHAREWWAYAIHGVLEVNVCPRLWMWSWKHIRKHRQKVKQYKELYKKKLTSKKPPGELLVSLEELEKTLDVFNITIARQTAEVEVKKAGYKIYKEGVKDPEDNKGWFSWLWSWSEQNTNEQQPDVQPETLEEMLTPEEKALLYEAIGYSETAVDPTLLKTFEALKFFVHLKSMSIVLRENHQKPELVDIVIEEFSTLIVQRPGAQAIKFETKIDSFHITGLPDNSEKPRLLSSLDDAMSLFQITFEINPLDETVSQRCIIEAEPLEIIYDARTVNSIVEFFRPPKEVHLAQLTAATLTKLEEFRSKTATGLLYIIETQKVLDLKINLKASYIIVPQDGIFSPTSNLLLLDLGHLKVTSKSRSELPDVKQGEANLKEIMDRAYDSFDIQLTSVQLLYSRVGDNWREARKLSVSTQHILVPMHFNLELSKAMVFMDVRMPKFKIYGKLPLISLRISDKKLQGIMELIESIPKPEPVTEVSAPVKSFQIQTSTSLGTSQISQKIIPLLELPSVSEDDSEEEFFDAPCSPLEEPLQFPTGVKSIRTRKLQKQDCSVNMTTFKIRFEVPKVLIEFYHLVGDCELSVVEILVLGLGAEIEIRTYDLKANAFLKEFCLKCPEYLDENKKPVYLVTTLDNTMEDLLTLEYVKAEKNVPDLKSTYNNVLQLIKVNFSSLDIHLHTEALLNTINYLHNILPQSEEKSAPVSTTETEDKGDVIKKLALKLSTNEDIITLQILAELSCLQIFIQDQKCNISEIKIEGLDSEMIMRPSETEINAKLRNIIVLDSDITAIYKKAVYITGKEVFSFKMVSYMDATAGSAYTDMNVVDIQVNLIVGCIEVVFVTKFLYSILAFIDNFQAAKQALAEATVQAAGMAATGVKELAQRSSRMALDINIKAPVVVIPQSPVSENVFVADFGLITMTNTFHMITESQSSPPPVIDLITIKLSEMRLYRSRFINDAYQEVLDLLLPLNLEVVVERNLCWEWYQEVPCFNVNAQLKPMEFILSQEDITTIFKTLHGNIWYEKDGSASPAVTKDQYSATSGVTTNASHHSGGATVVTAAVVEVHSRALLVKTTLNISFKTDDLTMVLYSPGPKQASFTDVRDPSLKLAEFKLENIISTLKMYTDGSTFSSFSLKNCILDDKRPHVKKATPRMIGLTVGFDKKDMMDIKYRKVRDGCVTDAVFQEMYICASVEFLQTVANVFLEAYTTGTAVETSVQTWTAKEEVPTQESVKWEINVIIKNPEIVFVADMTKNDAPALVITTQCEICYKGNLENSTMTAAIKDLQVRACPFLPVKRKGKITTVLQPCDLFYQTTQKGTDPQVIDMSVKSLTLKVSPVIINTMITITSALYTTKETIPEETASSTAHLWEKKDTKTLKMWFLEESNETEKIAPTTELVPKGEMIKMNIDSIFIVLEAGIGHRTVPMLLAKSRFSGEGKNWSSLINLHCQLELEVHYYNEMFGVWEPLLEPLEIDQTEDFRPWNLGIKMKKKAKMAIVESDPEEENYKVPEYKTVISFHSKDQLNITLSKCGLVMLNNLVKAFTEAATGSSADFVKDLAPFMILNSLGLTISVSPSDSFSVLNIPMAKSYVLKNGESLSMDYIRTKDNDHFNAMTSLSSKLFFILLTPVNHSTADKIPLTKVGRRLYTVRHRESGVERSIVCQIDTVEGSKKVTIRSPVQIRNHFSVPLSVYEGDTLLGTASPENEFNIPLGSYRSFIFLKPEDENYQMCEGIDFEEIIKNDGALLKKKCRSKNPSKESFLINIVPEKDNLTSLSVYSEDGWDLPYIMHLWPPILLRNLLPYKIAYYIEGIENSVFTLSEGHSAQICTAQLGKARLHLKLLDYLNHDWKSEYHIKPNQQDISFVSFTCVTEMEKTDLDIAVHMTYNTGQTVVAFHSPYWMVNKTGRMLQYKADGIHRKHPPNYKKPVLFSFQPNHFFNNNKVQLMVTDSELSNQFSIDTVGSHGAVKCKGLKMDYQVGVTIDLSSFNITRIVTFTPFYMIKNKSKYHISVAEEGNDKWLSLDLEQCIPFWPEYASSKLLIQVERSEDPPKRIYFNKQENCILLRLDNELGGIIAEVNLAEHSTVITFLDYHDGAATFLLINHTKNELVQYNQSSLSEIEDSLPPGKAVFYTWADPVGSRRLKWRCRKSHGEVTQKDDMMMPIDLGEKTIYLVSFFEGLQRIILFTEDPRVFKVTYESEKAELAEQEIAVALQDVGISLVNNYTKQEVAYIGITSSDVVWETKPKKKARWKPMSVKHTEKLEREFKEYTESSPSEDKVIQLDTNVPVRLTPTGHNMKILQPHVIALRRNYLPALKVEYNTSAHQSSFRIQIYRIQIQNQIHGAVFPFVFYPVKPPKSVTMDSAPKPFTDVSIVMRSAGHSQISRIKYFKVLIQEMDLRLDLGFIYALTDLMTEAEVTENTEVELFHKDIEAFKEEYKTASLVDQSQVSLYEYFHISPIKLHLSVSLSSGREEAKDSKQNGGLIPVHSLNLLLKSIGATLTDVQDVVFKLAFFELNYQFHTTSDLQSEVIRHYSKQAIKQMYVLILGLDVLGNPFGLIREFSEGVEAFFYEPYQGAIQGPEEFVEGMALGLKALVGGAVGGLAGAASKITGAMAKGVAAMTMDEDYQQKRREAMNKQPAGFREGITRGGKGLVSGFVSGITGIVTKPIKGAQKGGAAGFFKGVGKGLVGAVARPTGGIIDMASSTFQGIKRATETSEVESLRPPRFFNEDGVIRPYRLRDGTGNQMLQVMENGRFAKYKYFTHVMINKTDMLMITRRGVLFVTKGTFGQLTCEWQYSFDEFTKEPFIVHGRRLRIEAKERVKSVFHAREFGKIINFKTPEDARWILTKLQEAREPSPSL

T2: ESYT1 fused with BirA*-FLAG (BioID bait) (human) (UniProt Q9BSJ8)
T2 sequence: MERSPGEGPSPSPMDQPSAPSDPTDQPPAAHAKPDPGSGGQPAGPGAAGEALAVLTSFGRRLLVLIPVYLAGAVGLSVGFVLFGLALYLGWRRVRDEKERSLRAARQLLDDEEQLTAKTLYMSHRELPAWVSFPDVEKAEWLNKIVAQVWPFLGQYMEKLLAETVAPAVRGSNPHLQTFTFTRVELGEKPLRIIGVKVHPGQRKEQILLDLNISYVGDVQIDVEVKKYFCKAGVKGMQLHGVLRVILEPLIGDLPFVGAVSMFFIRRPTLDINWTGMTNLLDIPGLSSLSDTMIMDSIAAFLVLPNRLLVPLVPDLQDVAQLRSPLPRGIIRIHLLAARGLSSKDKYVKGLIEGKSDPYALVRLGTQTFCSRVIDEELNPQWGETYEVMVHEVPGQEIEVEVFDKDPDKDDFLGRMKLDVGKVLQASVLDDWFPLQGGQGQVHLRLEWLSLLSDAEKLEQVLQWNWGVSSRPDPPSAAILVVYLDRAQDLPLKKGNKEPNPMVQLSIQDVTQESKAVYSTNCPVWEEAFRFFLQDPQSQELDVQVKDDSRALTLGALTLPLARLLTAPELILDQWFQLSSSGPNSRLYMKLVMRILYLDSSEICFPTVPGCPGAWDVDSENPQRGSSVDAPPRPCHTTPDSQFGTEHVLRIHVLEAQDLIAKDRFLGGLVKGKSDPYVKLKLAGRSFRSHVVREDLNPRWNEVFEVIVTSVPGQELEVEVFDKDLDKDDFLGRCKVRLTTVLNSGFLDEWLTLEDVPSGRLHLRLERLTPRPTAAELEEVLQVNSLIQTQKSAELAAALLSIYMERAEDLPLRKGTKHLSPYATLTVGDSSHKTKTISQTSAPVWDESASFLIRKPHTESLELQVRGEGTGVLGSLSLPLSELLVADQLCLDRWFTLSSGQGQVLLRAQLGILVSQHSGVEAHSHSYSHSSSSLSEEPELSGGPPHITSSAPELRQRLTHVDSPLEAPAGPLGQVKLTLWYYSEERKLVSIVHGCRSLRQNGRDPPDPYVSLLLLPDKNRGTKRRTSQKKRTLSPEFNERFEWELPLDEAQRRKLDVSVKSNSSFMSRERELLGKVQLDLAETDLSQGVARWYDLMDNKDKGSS


Assays:
[1] = molecular target: T1, SYNJ2BP fused with BirA*-FLAG (BioID bait) (human); experiment: proximity labelling; BioID in stable inducible Flp-In T-REx 293 cells expressing BirA*-FLAG baits; mass spectrometry of biotinylated preys; SAINTexpress, two biological replicates per bait, 50 negative control runs, BFDR threshold 1%
[2] = molecular target: T2, ESYT1 fused with BirA*-FLAG (BioID bait) (human); experiment: as above

binding [1] | binding [2] | Molecule
binds |  | VPS13D (from UniProt Q5THJ4 1-4388)
binds |  | VPS13A (from UniProt Q96RL7 1-3174)
 | binds | ESYT2 (endogenous prey in BioID) (protein, UniProt A0FGR8 1-921) MTANRDAALSSHRHPGCAQRPRTPTFASSSQRRSAFGFDDGNFPGLGERSHAPGSRLGARRRAKTARGLRGHRQRGAGAGLSRPGSARAPSPPRPGGPENPGGVLSVELPGLLAQLARSFALLLPVYALGYLGLSFSWVLLALALLAWCRRSRGLKALRLCRALALLEDEERVVRLGVRACDLPAWVHFPDTERAEWLNKTVKHMWPFICQFIEKLFRETIEPAVRGANTHLSTFSFTKVDVGQQPLRINGVKVYTENVDKRQIILDLQISFVGNCEIDLEIKRYFCRAGVKSIQIHGTMRVILEPLIGDMPLVGALSIFFLRKPLLEINWTGLTNLLDVPGLNGLSDTIILDIISNYLVLPNRITVPLVSEVQIAQLRFPVPKGVLRIHFIEAQDLQGKDTYLKGLVKGKSDPYGIIRVGNQIFQSRVIKENLSPKWNEVYEALVYEHPGQELEIELFDEDPDKDDFLGSLMIDLIEVEKERLLDEWFTLDEVPKGKLHLRLEWLTLMPNASNLDKVLTDIKADKDQANDGLSSALLILYLDSARNLPSGKKISSNPNPVVQMSVGHKAQESKIRYKTNEPVWEENFTFFIHNPKRQDLEVEVRDEQHQCSLGNLKVPLSQLLTSEDMTVSQRFQLSNSGPNSTIKMKIALRVLHLEKRERPPDHQHSAQVKRPSVSKEGRKTSIKSHMSGSPGPGGSNTAPSTPVIGGSDKPGMEEKAQPPEAGPQGLHDLGRSSSSLLASPGHISVKEPTPSIASDISLPIATQELRQRLRQLENGTTLGQSPLGQIQLTIRHSSQRNKLIVVVHACRNLIAFSEDGSDPYVRMYLLPDKRRSGRRKTHVSKKTLNPVFDQSFDFSVSLPEVQRRTLDVAVKNSGGFLSKDKGLLGKVLVALASEELAKGWTQWYDLTEDGTRPQAMT

From PMC10627786
